Here are results for three substances from article PMC12310199.

Amino acid sequences for entries named in this document (tags omitted).
UniProt P61289: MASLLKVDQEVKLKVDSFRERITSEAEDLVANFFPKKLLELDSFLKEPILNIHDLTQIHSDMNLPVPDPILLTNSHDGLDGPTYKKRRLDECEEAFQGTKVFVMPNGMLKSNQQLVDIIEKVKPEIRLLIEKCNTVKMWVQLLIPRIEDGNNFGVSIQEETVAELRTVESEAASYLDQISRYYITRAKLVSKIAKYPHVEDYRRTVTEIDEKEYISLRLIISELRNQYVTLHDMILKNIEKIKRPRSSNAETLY

Assay [1] concerns the target Complement 1q binding protein (C1QBP), endogenous (human (endogenous in HSC-3 and UM1)) (UniProt Q07021). Nature of the assay: co-IP; endogenous proteins in HSC-3 cells; lysis in 1% NP-40 with protease inhibitors, antibody at 4°C overnight, protein G agarose, western blot. A general note: In western blotting, separated proteins are transferred to a membrane and probed.

Assay [2] has the same target. In words: proximity ligation; Duolink PLA kit in UM1 cells with antibodies to PA28γ and C1QBP; signal in cytoplasm and nucleus.
The target in another assay is Flag-C1QBP 1-167 (UniProt Q07021). In words: pull-down; 293T cells transfected with Myc-PA28γ and Flag-C1QBP (full length or truncations) for 36 hr; called pull-down by the paper, the appendix describes only an immunoprecipitation protocol.
The target in assay [3] is Flag-C1QBP, full length (UniProt Q07021). The description is as above.
Another assay deals with Flag-C1QBP-T76A (UniProt Q07021). In words: co-IP; 293T cells transfected with Flag-C1QBP wild-type or mutations (T76A and G78N) for 48 hr.
Another assay has as its target Flag-C1QBP-G78N (UniProt Q07021). Described as above.
The target in assay [4] is Flag-C1QBP, full length (UniProt Q07021). The assay is described as above.

No constants are given. Whether binding was seen depends on the method and setting. In cells and extracts the contact can be indirect. Some binding calls cover weakened binding; strength is not graded here.

Turning to “Proteasome activator 28γ (PA28γ), endogenous (from UniProt P61289 1-254)”, the binding entry in assay [1] and in assay [2] was “binds” in each case.
Consider Myc-PA28γ (from UniProt P61289 1-254), for which the binding entry in the assay with Flag-C1QBP 1-167 is “binds”; in the assay with Flag-C1QBP, full length [3] it was “binds”.
With “PA28γ in 293T cells (co-immunoprecipitation of Figure 1J) (from UniProt P61289 1-254)”, the binding entry with Flag-C1QBP-T76A was “binds”; in the assay with Flag-C1QBP-G78N it was “binds”; in the assay with Flag-C1QBP, full length [4], “binds”.
